The source of these data is PubChem BioAssay AID1347146 (National Center for Advancing Translational Sciences (NCATS), 2019).

Protein sequences, listed by entry. Tags and fused reporters are not part of them. Lines headed by an entry give the natural chain unless they say otherwise; changes in a name come on top.
UniProt P40261: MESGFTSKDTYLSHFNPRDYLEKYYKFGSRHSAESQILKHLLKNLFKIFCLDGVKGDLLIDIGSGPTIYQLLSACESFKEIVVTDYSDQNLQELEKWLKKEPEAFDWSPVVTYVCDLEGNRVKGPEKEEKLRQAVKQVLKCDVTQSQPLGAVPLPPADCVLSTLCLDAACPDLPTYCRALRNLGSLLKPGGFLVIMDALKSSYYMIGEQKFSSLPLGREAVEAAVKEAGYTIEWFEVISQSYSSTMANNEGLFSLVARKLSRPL

The assay has as its target Nicotinamide N-methyltransferase (Homo sapiens) (UniProt P40261). Briefly: qHTS Assay for Inhibitors of N-terminal methyltransferase 1 (NTMT1): NNMT MTaseGlo counterscreen assay.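 Also: plate controls were DMSO without inhibitor for no effect and no-enzyme control for full effect.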 The conditions noted are these: NNMT enzyme, MTase-Glo luminescence counterscreen; at 57.1 µM (top of the series). From the text: Assay Submitter (PI): Rong Huang Ph.D, Purdue University, West Lafayette, IN 47907
The N-terminal methytransferase 1 is the first methyltransferase that methylates protein alpha-N-amines and plays an important role in regulating cell mitosis, chromatin interactions and DNA repair. It is observed to be over-expressed in various cancer patient tissues like malignant melanoma and colorectal cancer tissues. Knockdown of NTMT1 in cancer cells causes cell mitotic defects and enhances sensitivity to DNA damaging chemotherapeutics. […] To address this unmet need, a panel of assay is created and established to enable quantitative high-throughput screening (qHTS) for novel, potent, and selective small molecule NTMT1 inhibitors. […]
MTaseGlo Assay is a luminescence screen that measure the activity of methyltransferases based on the reaction product S-adenosyl homocysteine (SAH). […]
In brief, 3 µL of enzyme mixture (final concentrations of 125 nM and 100 µM for NNMT and SAM, respectively) into all wells of a 1,536-well solid-bottom white plate (Greiner Bio One, Monroe, NC). […] MTase-Glo Detection Solution(R) to allow for ADP to be converted to ATP, which was then detected with a luciferase reaction. […] Plates were then read using Luminescence optics on a ViewLux detector. […]

Most of the hits are listed elsewhere, so they are rarer here than in the full data. Records with an inconclusive call do not appear. Activity calls are given as the source filed them. Calls follow the shape of the dose curve; as a rule, active = well fitted inhibition curve with a large enough effect; inconclusive = small, poorly fitted or top-dose-only effect; inactive = no such curve, though single readings can be large or run the other way.

For the compound `Oc1cc2c(c(Cl)c1O)CCNCC2c1ccccc1` (stereo unspecified), the activity change, negative = inhibition is inactive: -12.1%.
